Structures can show the parent of a compound that is named as a salt. The list shows a part of the results. Repeats are few or missing, and single values can be far off.
What was measured:
Test in all cases: reduction in cell viability relative to untreated/vehicle; higher = more growth inhibition
Conditions in all cases: 200 nM; 72 h
[1] = tested on: M229P (parental melanoma line)
[2] = tested on: M229R (matched melanoma line resistant to BRAF inhibitors)
[3] = tested on: M238P (parental melanoma line)
[4] = tested on: M238R (matched melanoma line resistant to BRAF inhibitors)
[5] = tested on: M249P (parental melanoma line)
[6] = tested on: M249R (matched melanoma line resistant to BRAF inhibitors)
[7] = tested on: UACC62P (parental melanoma line)
[8] = tested on: UACC62R (matched melanoma line resistant to BRAF inhibitors)

Measured: reduction in cell viability

O=C(Nc1ccc(F)c(C(F)(F)F)c1)Nc1nnc(-c2ccncc2)s1
< 0%: all assays above

O=C(C1CC1)N1CC[C@@H](Cn2c(-c3ccc(-c4ccc5occc5c4)cc3)nc3cnccc32)C1
< 0%: all assays above

Nc1nc(NCCNc2ncc(-n3ccnc3)c(-c3ccc(Cl)cc3Cl)n2)ccc1[N+](=O)[O-]
5.83%: [6]
< 0%: all other assays above

Cc1oc(=O)oc1CN1CCN(c2cc3c(cc2F)c(=O)c(C(=O)O)c2n3C(C)S2)CC1 (stereo not given) [Prulifloxacin]
< 0%: all assays above

CC(C)[C@H]1CC[C@H](C(=O)N[C@H](Cc2ccccc2)C(=O)O)CC1 [Nateglinide]
< 0%: all assays above

C[C@]12CC[C@H](O)CC1=CC[C@@H]1[C@@H]2CC[C@]2(C)C(c3cccnc3)=CC[C@@H]12 [Abiraterone]
0.42%: [7]
< 0%: all other assays above

CCCCCCCCCCCC1=C(O)C(=O)C=C(O)C1=O [Embelin]
< 0%: all assays above

C=C[C@H]1CN2CC[C@H]1C[C@H]2[C@H](O)c1ccnc2ccc(OC)cc12 [Quinine]
< 0%: all assays above

CCn1cc(C(=O)O)c(=O)c2ccc(C)nc21 [Nalidixic acid]
< 0%: all assays above

COc1ccc(-c2oc3c(CC=C(C)C)c(O)cc(O)c3c(=O)c2O)cc1 [Icaritin]
< 0%: all assays above

CS(=O)(=O)c1ccc([C@@H](O)[C@@H](CO)NC(=O)C(Cl)Cl)cc1 [Thiamphenicol]
< 0%: all assays above

CC1(C)C(N(O)C(=O)Nc2ccc(Cl)cc2)N(c2ccc(Cl)cc2)C(=O)N1CC(=O)NN=CC=Cc1ccc([N+](=O)[O-])o1 (stereo not given) [Eeyarestatin I]
5.66%: [7]
3.86%: [6]
< 0%: all other assays above

O=c1c(O)c(-c2ccc(O)c(O)c2)oc2cc(O)ccc12 [Fisetin]
15.3%: [5]
33.1%: [7]
< 0%: all other assays above

CC(C)OC(=O)C1=CN(C(=O)c2ccc(F)c(F)c2)CC(C)(C)c2c1[nH]c1ccccc21 [Turofexorate isopropyl]
< 0%: all assays above

Looked up by compound from the entries so far, 3 records:
O=c1c(O)c(-c2ccc(O)c(O)c2)oc2cc(O)ccc12 [Fisetin]
15.3%: [5]
33.1%: [7]
< 0%: all other assays above

CC(C)OC(=O)C1=CN(C(=O)c2ccc(F)c(F)c2)CC(C)(C)c2c1[nH]c1ccccc21 [Turofexorate isopropyl]
< 0%: all assays above

CC1(C)C(N(O)C(=O)Nc2ccc(Cl)cc2)N(c2ccc(Cl)cc2)C(=O)N1CC(=O)NN=CC=Cc1ccc([N+](=O)[O-])o1 (stereo not given) [Eeyarestatin I]
5.66%: [7]
3.86%: [6]
< 0%: all other assays above

Additional compounds:

CC1(C)CCC[C@]2(C)[C@H]3CC(=O)O[C@]3(C)CC[C@@H]12 [Sclareolide]
1.22%: [7]
< 0%: all other assays above

NC1=N[C@@]2(c3cc(NC(=O)c4ccc(F)cn4)ccc3F)COC[C@H]2CS1
6.38%: [7]
< 0%: all other assays above

CN(C)C(=O)[C@H](O)[C@H](Cc1ccccc1)NC(=O)c1cc2cc(Cl)ccc2[nH]1
< 0%: all assays above

C[C@H](CCC(=O)O)[C@H]1CC[C@H]2[C@@H]3C[C@H](O)[C@@H]4C[C@H](O)CC[C@]4(C)[C@H]3CC[C@]12C [Hyodeoxycholic acid (HDCA)]
6.02%: [6]
< 0%: all other assays above

NS(=O)(=O)c1cccc2c1C(=O)c1cccc(O)c1C2=O
47.4%: [2]
90.9%: [3]
25.8%: [5]
71.3%: [1]
89%: [7]
98.2%: [8]
61.1%: [6]
96.8%: [4]

CC[C@@]1(O)C(=O)OCc2c1cc1n(c2=O)Cc2cc3cc(O)ccc3nc2-1 [10-hydroxycamptothecin]
57.6%: [6]
< 0%: [1]
72.6%: [8]
47.7%: [4]
10.9%: [2]
77%: [3]
25.8%: [5]
60.9%: [7]

CC(C)Cc1ccc(C(C)C(=O)O)cc1 (stereo not given) [Ibuprofen lysine]
2.61%: [6]
1.83%: [7]
< 0%: all other assays above

CC(C)(S)[C@@H](N)C(=O)O [Penicillamine]
< 0%: all assays above

CC[C@H]1OC(=O)[C@H](C)[C@@H](O[C@H]2C[C@@](C)(OC)[C@@H](O)[C@H](C)O2)[C@H](C)[C@@H](O[C@@H]2O[C@H](C)C[C@H](N(C)C)[C@H]2O)[C@](C)(O)C[C@@H](C)C(=O)[C@H](C)[C@@H](O)[C@]1(C)O [Erythromycin]
< 0%: all assays above

c1ccc2c(Oc3nc(Nc4ccc(N5CCOCC5)cc4)c4ncn(C5CCCCC5)c4n3)cccc2c1 [purmorphamine]
5.73%: [4]
14.6%: [3]
10.9%: [7]
< 0%: all other assays above

N[C@@H](Cc1cc(I)c(Oc2cc(I)c(O)c(I)c2)c(I)c1)C(=O)O [L-Thyroxine]
< 0%: all assays above

CCc1cccc(CC)c1NC(=O)N1Cc2[nH]nc(NC(=O)c3ccc(N4CCN(C)CC4)cc3)c2C1
34.1%: [8]
11.6%: [3]
13.6%: [5]
26.2%: [7]
< 0%: all other assays above

COc1ccc2c(c1OC)C(=O)O[C@@H]2[C@H]1c2c(cc3c(c2OC)OCO3)CCN1C [Noscapine]
20.6%: [7]
< 0%: all other assays above

O=C1Cc2cc(CCN3CCN(c4nsc5ccccc45)CC3)c(Cl)cc2N1 [Ziprasidone hydrochloride]
2.18%: [6]
< 0%: all other assays above

O=c1c(-c2ccc(O)cc2)coc2c([C@@H]3O[C@H](CO)[C@@H](O)[C@H](O)[C@H]3O)c(O)ccc12 [Puerarin]
4.44%: [7]
< 0%: all other assays above

CC(C)(N)C(=O)N[C@H](COCc1ccccc1)C(=O)N1CCC2(CC1)CN(S(C)(=O)=O)c1ccccc12 [Ibutamoren mesilate]
< 0%: all assays above

CC(/C=C1\SC(=S)N(CC(=O)O)C1=O)=C\c1ccccc1 [Epalrestat]
< 0%: all assays above

COc1cc2c(cc1OC)CC(=O)N(CCCN(C)C[C@H]1Cc3cc(OC)c(OC)cc31)CC2 [Ivabradine hydrochloride]
< 0%: all assays above

Cc1coc2c1C(=O)C(=O)c1c-2ccc2c(C)cccc12 [Tanshinone I]
5.26%: [6]
< 0%: all other assays above

O=C(O)C1CCCN(CCC=C(c2ccccc2)c2ccccc2)C1 (stereo not given)
< 0%: all assays above

N#Cc1c(C2CCNCC2)cc(-c2c(O)cccc2OCC2CC2)nc1N [IKK-2 Inhibitor VIII]
< 0%: all assays above

Reference: the supplement of paper PMC9015667
